This note sets out measurements from paper PMC3045356.

Chains of the proteins cited; added tags and fusions are not shown. Residues count along the entry.
UniProt O00220, residues 24-468: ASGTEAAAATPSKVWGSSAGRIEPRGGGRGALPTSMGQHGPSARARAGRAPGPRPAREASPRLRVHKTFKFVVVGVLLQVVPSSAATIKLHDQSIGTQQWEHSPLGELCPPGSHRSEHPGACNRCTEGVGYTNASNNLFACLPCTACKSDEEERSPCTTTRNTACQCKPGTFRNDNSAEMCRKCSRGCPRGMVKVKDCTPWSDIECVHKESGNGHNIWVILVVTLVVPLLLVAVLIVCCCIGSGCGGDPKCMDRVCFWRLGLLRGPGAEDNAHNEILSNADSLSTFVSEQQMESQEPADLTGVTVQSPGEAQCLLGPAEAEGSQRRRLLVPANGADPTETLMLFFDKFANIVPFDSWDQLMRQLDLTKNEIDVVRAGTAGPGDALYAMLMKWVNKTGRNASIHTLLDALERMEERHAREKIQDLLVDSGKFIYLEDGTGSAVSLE
UniProt O14763, residues 56-440: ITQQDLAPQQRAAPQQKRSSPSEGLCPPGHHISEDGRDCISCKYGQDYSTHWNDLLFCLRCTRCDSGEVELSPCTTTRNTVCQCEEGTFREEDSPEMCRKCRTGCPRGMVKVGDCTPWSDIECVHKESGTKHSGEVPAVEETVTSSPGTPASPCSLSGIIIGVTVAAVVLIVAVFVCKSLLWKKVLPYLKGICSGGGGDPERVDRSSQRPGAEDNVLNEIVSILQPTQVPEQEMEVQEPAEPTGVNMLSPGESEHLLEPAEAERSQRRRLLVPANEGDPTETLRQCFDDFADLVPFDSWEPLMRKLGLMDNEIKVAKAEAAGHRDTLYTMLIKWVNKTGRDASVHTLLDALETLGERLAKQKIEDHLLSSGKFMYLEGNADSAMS
UniProt Q13158: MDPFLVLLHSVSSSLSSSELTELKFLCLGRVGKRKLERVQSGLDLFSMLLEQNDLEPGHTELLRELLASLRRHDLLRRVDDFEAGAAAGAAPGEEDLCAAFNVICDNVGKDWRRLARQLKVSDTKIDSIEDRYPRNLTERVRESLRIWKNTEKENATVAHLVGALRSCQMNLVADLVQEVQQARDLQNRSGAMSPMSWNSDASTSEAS

Results are given in words; binding and its absence hold for the method and conditions named. Binding seen in cells or lysates may run through a third protein. Some results given as binding are weak or reduced against the parent protein; the word gives no strength.

In experiment [1] the target is Death receptor 4 (DR4) (human (endogenous in SW948)) (UniProt O00220). As to the kind of experiment: co-IP; DR4-DISC and DR5-DISC: SW948 cells stimulated 15 min at 37°C with 5 μg/ml agonistic antibody (HGS-ETR1 for DR4, TR2J for DR5); lysis in 0.2% Nonidet P-40, 150 mM NaCl, 20 mM Tris-HCl pH 7.5; precipitated with protein-G agarose; Western blot for DR4, DR5, FADD, caspase 8, c-FLIP.

Experiment [2] has as its target Death receptor 5 (DR5) (human (endogenous in SW948)) (UniProt O14763). Described as above.

For the substance FADD (from UniProt Q13158 1-208), the binding entry in experiment [1] and in experiment [2] was “binds” each time.
